No signal at the amounts used counts as a negative. For some assays here: Construct, isoform or probe ends are uncertain for at least one entry.
What was measured:
[1] = target: HER2 (ErbB2) (UniProt P04626); assay: binding assay; conditions: 5'-amino modifier C6; impedance; PBS pH 4.0, 15 min releases HER2; rebinds at pH 6 (30 ng/ml); purified recombinant protein; protein details: R&D Systems; label: 5'-amine, amide-coupled to MPA on gold electrode; single-stranded DNA
[2] = system: Immunoglobulin G (IgG); assay: binding assay; conditions: 5'-amino modifier C6; impedance; 20 ug/ml IgG in PBS, 30 min, Ret unchanged; purified native protein; protein details: Sigma-Aldrich; label: 5'-amine, amide-coupled to MPA on gold electrode; single-stranded DNA

“CTTCTGCCCGCCTCCTTCCTGGGGCCTGGATACGGATTGGTAAGGATTAGTAGGGGGCATAGCTGGAGACGAGATAGGCGGACACT [HER2 NH2-aptamer]”: no binding [1]; no binding [2].

Source: patent US20130270124
